{"source": "patent US20070025930A1", "about": "“Dibenzoilmethane derivative compounds, the use thereof in the form of photoactivable solar filters and cosmetic compositions containing said compounds” (UNIVERSITE PAUL SABATIER TOULOUSE 3, priority 2003, published 2007)", "key": {"[1]": {"assay": "Tests of stability towards UV radiation: water-in-oil preparation on a quartz slide, UVA absorbance monitored under solar irradiation", "format": "physicochemical", "settings": "for Variation in the absorbance at 356 nm: water-in-oil preparation on quartz slide", "text": "By way of example, the changes under irradiation of a base preparation (water-in-oil emulsion) containing the compounds obtained in the above examples, i.e. compound C10 and compound O10, are compared with that of the same preparation containing Parsol 1789 (mass % equivalent for each screening agent).\nBy way of example, the chosen preparations may be composed as follows:\nGlycasil L 0.19%, butyl paraben 0.3%, beeswax 4%, PEG-30 dipolyhydroxystearate 3%, dicapryl carbonate 10%, polyglyceryl-3-diisostearate 1.5%, water 78.64%, xanthan gum 1%, Na2EDTA 0.2%, NaCI 1%; methyl paraben 0.17%\nTo this common base is added, depending on the case, the compounds C10 or O10 or Parsol 1789 in equivalent mass %. 15 to 20 mg of these preparations are spread onto a quartz slide and the UVA absorbance of the slide is monitored over time under solar irradiation (in the month of June at 43° latitude north between 13.00 h and 16.00 h, mean flux of the solar UV radiation: 4 mW/cm^2, Oriel 70380 UV Radiometer—response between 280 nm and 400 nm with a maximum at 370 nm)). The absorbance at 356 nm of the plate with Parsol 1789 decreases by 51% in 1 hour and by 73% in 2 hours. In the same time, the plates that received compound O10 have an absorbance that increases by 16% in 1 hour and 19% in 2 hours. […]"}, "[2]": {"assay": "UV absorption (absorption maximum, molar extinction coefficient) in solution", "format": "physicochemical", "text": "As an illustration of these ultraviolet-absorbing capacities, measurements were taken for two dibenzoylmethane derivatives according to the invention: • for a compound of formula (I) in which R1, R′1, R2, R′2, R3, R′3, R4, R′4 and R′5 each represent a hydrogen atom and R5 represents a saturated linear acyclic carbon-based chain containing 10 carbon atoms, the absorption maximum is (in solution in acetonitrile) at 263 nm with a molar extinction coefficient of 20 000 I.cm^−1.mol^−1. This compound will be referred to hereinbelow as compound C10; • for a compound of formula (I) in which R1, R′1, R2, R′2, R3, R′3, R4, R′4 and R5 each represent a hydrogen atom and R′5 represents a saturated linear acyclic carbon-based chain containing 10 carbon atoms, the absorption maximum (in solution in acetonitrile) is at 302 nm with a molar extinction coefficient of 17 000 I.cm^−1.mol^−1.\nThis is likewise the case for compound C10. Furthermore, in organized medium, these two compounds, subjected to ultraviolet radiation, undergo a shift of their maximum absorbance wavelength from UVB to UVA, thus causing the same effect as organization of the system. As a result, the maximum shift of the absorption bands towards UVA is obtained by placing these compounds in organized medium under irradiation, as is the case for an antisun cosmetic preparation under the normal conditions of its use. Irradiation of the preparation amplifies the phenomenon induced by the medium in which the compounds are present. There are therefore two screening molecules present, the absorbing power of which appears in its entirety only when they are subjected to ultraviolet exposure, in an organized medium. The protection capacity of a preparation containing them should thus increase during exposure, rather than decrease, which is the case for preparations containing Parsol 1789 as sole UV-screening agent. This increase in the absorbance at the start of exposure makes it possible to maintain a maximum level of protection for longer.\nThe NMR spectra were acquired using a Bruker ARX 400 MHz machine. […]"}}, "note": "At least one compound was matched to its structure with a doubt left.", "data": [{"smiles": "CCCCCCCCCCO/C(=C\\C(=O)c1ccc(OC)cc1)c1ccc(C(C)(C)C)cc1", "note": "[compound O10, 3-(4-tert-butylphenyl)-3-decanoxy-1-(4-methoxy-phenyl) prop-2-ene-1-one]", "values": [{"measurement": "Variation in the absorbance at 356 nm", "setting": "[1]; Irradiation 1 hour solar UV", "result": "+16%"}, {"measurement": "Variation in the absorbance at 356 nm", "setting": "[1]; Irradiation 2 hours solar UV", "result": "+19%"}, {"measurement": "increase of the absorbance", "setting": "[1]; in 1 hour solar irradiation", "result": 16, "unit": "%"}, {"measurement": "increase of the absorbance", "setting": "[1]; in 2 hours solar irradiation", "result": 19, "unit": "%"}, {"measurement": "absorption maximum", "setting": "[2]; in solution in acetonitrile", "result": 302, "unit": "nm"}, {"measurement": "molar extinction coefficient", "setting": "[2]; in solution in acetonitrile, at the absorption maximum", "result": "17 000 I.cm^−1.mol^−1"}, {"measurement": "absorption maximum in the UVA range (solvatochromy)", "setting": "[2]; organized solvents, e.g. micellar solutions of sodium dodecyl sulfate", "result": "about 360 nm"}]}]}
